Reference: patent US20230227838A1, “ENHANCED CELL SURVIVAL AGAINST BIOTIC AND ABIOTIC STRESSES THROUGH SALICYLICK ACID-INDUCED NPR1 CONDENSATES” (priority 2020, published 2023)

B1: AT5G57560 (protein, UniProt Q38857 22-284, looked up)
Xyloglucan …: NFQRDVEITWGDGRGQIKNNGELLTLSLDKSSGSGFQSKNEYLFGKVSMQMKLVPGNSAGTVTTLYLKSPGTTWDEIDFEFLGNSSGEPYTLHTNVYTQGKGDKEQQFKLWFDPTANFHTYTILWNPQRIIFTVDGTPIREFKNMESLGTLFPKNKPMRMYSSLWNADDWATRGGLVKTDWSKAPFTASYRGFQQEACVWSNGKSSCPNASKQGTTTGSWLSQELDSTAQQRMRWVQRNYMIYNYCTDAKRFPQGLPKECLAA
B2: AT1G22400 (protein, UniProt Q9SK82 1-489, looked up)
UDP-glycosyltransferase 85A1: MGSQIIHNSQKPHVVCVPYPAQGHINPMMRVAKLLHARGFYVTFVNTVYNHNRFLRSRGSNALDGLPSFRFESIADGLPETDMDATQDITALCESTMKNCLAPFRELLQRINAGDNVPPVSCIVSDGCMSFTLDVAEELGVPEVLFWTTSGCAFLAYLHFYLFIEKGLCPLKDESYLTKEYLEDTVIDFIPTMKNVKLKDIPSFIRTTNPDDVMISFALRETERAKRASAIILNTFDDLEHDVVHAMQSILPPVYSVGPLHLLANREIEEGSEIGMMSSNLWKEEMECLDWLDTKTQNSVIYINFGSITVLSVKQLVEFAWGLAGSGKEFLWVIRPDLVAGEEAMVPPDFLMETKDRSMLASWCPQEKVLSHPAIGGFLTHCGWNSILESLSCGVPMVCWPFFADQQMNCKFCCDEWDVGIEIGGDVKREEVEAVVRELMDGEKGKKMREKAVEWQRLAEKATEHKLGSSVMNFETVVSKFLLGQKSQD
B3: AT2G24850 (protein, UniProt Q9SK47 1-445, looked up)
Probable aminotransferase TAT3: MASNGVTNCNANANVWRFKGNGATSDAAAVTLRKLAFGMFKNCTMNSGKTILFPTPGEPSAHSNFRTCPEAEEAVAAAARSGMANSYAPSPGVFKARRAVAEYLNGELPTKLKAEDVYITGGCNQAIEIVIDSLAGNPSANILLPRPGYPHYDARAVYSGLEIRKYDLLPESDWEINLDGLEAAADENTVAMVIINPNNPCGNVYTYDHLNKVAEMARKLGIMIISDEVYDHVVYGDKPFIPMGKFASIAPVITLGSISKGWVNPGWRVGWIAMNDPNGIFVSTGVVQAIEDFLDLTPQPSFILQEALPDILEKTPKEFFEKKIKAMRRNVELSCERLKDIPCLFCPKKPESCSYLWLKLDTSMLNNIKNDFDFCTKLVSEESLILIPGVALGAENWVRISIGTDESVVQEIFDRLKGFYDRHAISKEAIKLSGHAINQIVVSVN
B4: AT2G14610 (protein)
chain: QDSPQDYLRVHNQARGAVGVGPMQWDERVAAYARSYAEQLRGNCRLIHSGGPYGENLAWGSGDLSGVSAVNMWVSEKANYNYAANTCNGVCGHYTQVVWRKSVRLGCAKVRCNNGGTIISCNYDPRGNYVNEKPY
B5: AT3G18520 (protein, UniProt Q8GXJ1 1-552, looked up)
Histone deacetylase 15: MVVETIERSCEGSKRRHVNGGDIAVPCSGEECSNGDINVAPGVSAKRARVSREMTFEDIYGADALLNDDDDEDDDCDWEPVQAPMEFVKWCCVNCTMSNPGDMVHCCICGEHKESGILRHGYLASPFFKDTGLIEVEEKYGGSSSATSSTAVGFDERMLLHSEFEVKAQPHPERPDRLRAIAASLATAGVFPGRCLPINAREITKQELQMVHTSEHVDAVDTTSQLLYSYFTSDTYANEYSARAARLAAGLCADLATDIFTGRVKNGFALVRPPGHHAGVRHAMGFCLHNNAAVAALVAQAAGAKKVLIVDWDVHHGNGTQEIFEQNKSVLYISLHRHEGGNFYPGTGAADEVGSNGGEGYCVNVPWSCGGVGDKDYIFAFQHVVLPIASAFSPDFVIISAGFDAARGDPLGCCDVTPAGYSRMTQMLGDLCGGKMLVILEGGYNLRSISASATAVIKVLLGENPENELPIATTPSVAGLQTVLDVLNIQLEFWPSLAISYSKLLSELEARLIENKKNQMKRKVVRVPTWWKWGRKKLLYNFLSARMISRSK
B6: AT3G52430 (protein)
chain: MDDCRFETSELQASVMISTPLFTDSWSSCNTANCNGSIKIHDIAGITYVAIPAVSMIQLGNLVGLPVTGDVLFPGLSSDEPLPMVDAAILKLFLQLKIKEGLELELLGKKLVVITGHSTGGALAAFTALWLLSQSSPPSFRVFCITFGSPLLGNQSLSTSISRSRLAHNFCHVVSIHDLVPRSSNEQFWPFGTYLFCSDKGGVCLDNAGSVRLMFNILNTTATQNTEEHQRYGHYVFTLSHMFLKSRSFLGGSIPDNSYQAGVALAVEALGFSNDDTSGVLVKECIETATRIVRAPILRSAELANELASVLPARLEIQWYKDRCDASEEQLGYYDFFKRYSLKRDFKVNMSRIRLAKFWDTVIKMVETNELPFDFHLGKKWIYASQFYQLLAEPLDIANFYKNRDIKTGGHYLEGNRPKRYEVIDKWQKGVKVPEECVRSRYASTTQDTCFWAKLEQAKEWLDEARKESSDPQRRSLLREKIVPFESYANTLVTKKEVSLDVKAKNSSYSVWEANLKEFKCKMGYENEIEMVVDESDAMET
B7: AT1G02930 (protein)
chain: MAGIKVFGHPASTATRRVLIALHEKNVDFEFVHVELKDGEHKKEPFILRNPFGKVPAFEDGDFKIFESRAITQYIAHEFSDKGNNLLSTGKDMAIIAMGIEIESHEFDPVGSKLVWEQVLKPLYGMTTDKTVVEEEEAKLAKVLDVYEHRLGESKYLASDHFTLVDLHTIPVIQYLLGTPTKKLFDERPHVSAWVADITSRPSAQKVL
B8: AT5G40760 (protein, UniProt Q9FJI5 1-515, looked up)
Glucose-6-phosphate …: MGSGQWHVEKRSTFRNDSFVREYGIVPETGCLSIIVLGASGDLAKKKTFPALFNLYRQGFLNPDEVHIFGYARTKISDEELRDRIRGYLVDEKNAEQAEALSKFLQLIKYVSGPYDAEEGFQRLDKAISEHEISKNSTEGSSRRLFYLALPPSVYPSVCKMIKTCCMNKSDLGGWTRIVVEKPFGKDLESAEQLSSQIGELFDESQIYRIDHYLGKELVQNMLVLRFANRFFLPLWNRDNIENVQIVFREDFGTEGRGGYFDEYGIIRDIIQNHLLQVLCLVAMEKPISLKPEHIRDEKVKVLQSVVPISDDEVVLGQYEGYRDDDTVPNDSNTPTFATTILRIHNERWEGVPFILKAGKALNSRKAEIRIQFKDVPGDIFRCQKQGRNEFVIRLQPSEAMYMKLTVKQPGLDMNTVQSELDLSYGQRYQGVAIPEAYERLILDTIKGDQQHFVRRDELKVAWEIFTPLLHRIDKGEVKSIPYKPGSRGPKEADQLLEKAGYLQTHGYIWIPPTL
B9: AT2G43820 (protein, UniProt O22822 1-449, looked up)
UDP-glycosyltransferase 74F2: MEHKRGHVLAVPYPTQGHITPFRQFCKRLHFKGLKTTLALTTFVFNSINPDLSGPISIATISDGYDHGGFETADSIDDYLKDFKTSGSKTIADIIQKHQTSDNPITCIVYDAFLPWALDVAREFGLVATPFFTQPCAVNYVYYLSYINNGSLQLPIEELPFLELQDLPSFFSVSGSYPAYFEMVLQQFINFEKADFVLVNSFQELELHENELWSKACPVLTIGPTIPSIYLDQRIKSDTGYDLNLFESKDDSFCINWLDTRPQGSVVYVAFGSMAQLTNVQMEELASAVSNFSFLWVVRSSEEEKLPSGFLETVNKEKSLVLKWSPQLQVLSNKAIGCFLTHCGWNSTMEALTFGVPMVAMPQWTDQPMNAKYIQDVWKAGVRVKTEKESGIAKREEIEFSIKEVMEGERSKEMKKNVKKWRDLAVKSLNEGGSTDTNIDTFVSRVQSK
B10: AT4G16950 (protein, UniProt F4JNB7 1-1449, looked up)
Disease resistance protein …: MAASSSSGRRRYDVFPSFSGVDVRKTFLSHLIEALDGKSINTFIDHGIERSRTIAPELISAIREARISIVIFSKNYASSTWCLNELVEIHKCFNDLGQMVIPVFYDVDPSEVRKQTGEFGKVFEKTCEVSKDKQPGDQKQRWVQALTDIANIAGEDLLNGPNEAHMVEKISNDVSNKLITRSKCFDDFVGIEAHIEAIKSVLCLESKEARMVGIWGQSGIGKSTIGRALFSQLSIQFPLRAFLTYKSTSGSDVSGMKLSWEKELLSEILGQKDIKIEHFGVVEQRLKHKKVLILLDDVDNLEFLKTLVGKAEWFGSGSRIIVITQDRQFLKAHDIDLVYEVKLPSQGLALTMLCRSAFGKDSPPDDFKELAFEVAKLAGHLPLGLNVLGSSLRRRGKKEWMEMMPRLRNGLNGDIMKTLRVSYDRLHQKDQDMFLCIACLFNGFEVSYVKDLLEDNVGLTMLSEKSLIRITPDGHIEMHNLLEKLGREIDRAKSKGNPGKRQFLTNFEDIHEVVTEKTGTETLLGIRLPFEEYFSTRPLLIDKESFKGMRNLQYLKIGDWSDGGQPQSLVYLPLKLRLLDWDDCPLKSLPSTFKAEYLVNLIMKYSKLEKLWEGTLPLGSLKKMNLLCSKNLKEIPDLSNARNLEELDLEGCESLVTLPSSIQNAIKLRKLHCSGVILIDLKSLEGMCNLEYLSVDCSRVEGTQGIVYFPSKLRLLLWNNCPLKRLHSNFKVEYLVKLRMENSDLEKLWDGTQPLGRLKQMFLRGSKYLKEIPDLSLAINLEEVDICKCESLVTFPSSMQNAIKLIYLDISDCKKLESFPTDLNLESLEYLNLTGCPNLRNFPAIKMGCSDVDFPEGRNEIVVEDCFWNKNLPAGLDYLDCLMRCMPCEFRPEYLVFLNVRCYKHEKLWEGIQSLGSLEEMDLSESENLTEIPDLSKATNLKHLYLNNCKSLVTLPSTIGNLQKLVRLEMKECTGLEVLPTDVNLSSLETLDLSGCSSLRTFPLISKSIKWLYLENTAIEEILDLSKATKLESLILNNCKSLVTLPSTIGNLQNLRRLYMKRCTGLEVLPTDVNLSSLGILDLSGCSSLRTFPLISTNIVWLYLENTAIGEVPCCIEDFTRLRVLLMYCCQRLKNISPNIFRLRSLMFADFTDCRGVIKALSDATVVATMEDSVSCVPLSENIEYTCERFWGELYGDGDWDLGTEYFSFRNCFKLDRDARELILRSCFKPVALPGGEIPKYFTYRAYGDSLTVTLPRSSLSQSFLRFKACLVVDPLSEGKGFYRYLEVNFGFNGKQYQKSFLEDEELEFCKTDHLFFCSFKFESEMTFNDVEFKFCCSNRIKECGVRLMYVSQETEYNQQTTRSKKRMRMTSGTSEEYINLAGDQIVADTGLAALNMELSLGEGEASSSTSLEGEALSVDYMITKEQDEDIPFLDPVSDGTWRSFYSAE

Test system: sim3-GFP
Test: Quantitative LC-MS/MS of sim3-GFP interactome (SINC components)
Design: species or system Arabidopsis thaliana
Conditions: protein enrichment in the sim3-GFP interactome (SINC components), SA-treated samples versus mock

| Molecule | Normalized Fold Change: SA vs Mock |
| --- | --- |
| B1 | 102.4 |
| B2 | 4.863 |
| B3 | 18.45 |
| B4 | 3.648 |
| B5 | 2572.7625 |
| B6 | 3.228 |
| B7 | 2.009 |
| B8 | 4.099 |
| B9 | 8.986 |
| B10 | 3.792 |
